In paper PMC4976216 one finds binding data, which are given here for four molecules.

For assay [1], the target named is microtubules made from purified wild-type yeast tubulin (Saccharomyces cerevisiae). The experiment in a line: co-sedimentation; microtubule binding spin-down assay with yeast tubulin polymerized at 30 °C, experiment carried out at 30 °C; anti-tubulin and anti-CGN western blot; both purified. (In general: In western blotting, separated proteins are transferred to a membrane and probed.)

Assay [2] has as its target subtilisin-digested microtubules (C-terminal tails cleaved). The experiment in a line: co-sedimentation; microtubule binding spin-down assay: 20 μl taxol-stabilized microtubules (0.5 mg/ml) with 2 μg test protein and 40 μg BSA in 200 μl 80 mM PIPES pH 7.0, 2 mM MgCl2, 0.5 mM EGTA, 30 min; spun at 100,000g through a 60% glycerol cushion; both purified.
Assay [3] concerns the target taxol-stabilized microtubules (polymerized tubulin). The assay is described as above.

No constants are given. Whether binding was seen depends on the method and setting. For part of these data: Binding calls can cover weak binding; strength is not graded here. Sequences can lack the tags named with a protein.

B1: GST-CGN(1-406) (domain or fragment, UniProt Q9P2M7 1-406)
chain: MEQAPNMAEPRGPVDHGVQIRFITEPVSGAEMGTLRRGGRRPAKDARASTYGVAVRVQGIAGQPFVVLNSGEKGGDSFGVQIKGANDQGASGALSSDLELPENPYSQVKGFPAPSQSSTSDEEPGAYWNGKLLRSHSQASLAGPGPVDPSNRSNSMLELAPKVASPGSTIDTAPLSSVDSLINKFDSQLGGQARGRTGRRTRMLPPEQRKRSKSLDSRLPRDTFEERERQSTNHWTSSTKYDNHVGTSKQPAQSQNLSPLSGFSRSRQTQDWVLQSFEEPRRSAQDPTMLQFKSTPDLLRDQQEAAPPGSVDHMKATIYGILREGSSESETSVRRKVSLVLEKMQPLVMVSSGSTKAVAGQGELTRKVEELQRKLDEEVKKRQKLEPSQVGLERQLEEKTEECSRL
For the molecule B1, the figures for the binding entry in assay [1], in assay [2] and in assay [3] were “binds”, “no binding (tested: 2 μg test protein in 200 μl)” and “binds”, respectively.

B2: CGN-M1 (R36/37A) (domain or fragment, UniProt Q9P2M7 1-406)
chain: MEQAPNMAEPRGPVDHGVQIRFITEPVSGAEMGTLAAGGRRPAKDARASTYGVAVRVQGIAGQPFVVLNSGEKGGDSFGVQIKGANDQGASGALSSDLELPENPYSQVKGFPAPSQSSTSDEEPGAYWNGKLLRSHSQASLAGPGPVDPSNRSNSMLELAPKVASPGSTIDTAPLSSVDSLINKFDSQLGGQARGRTGRRTRMLPPEQRKRSKSLDSRLPRDTFEERERQSTNHWTSSTKYDNHVGTSKQPAQSQNLSPLSGFSRSRQTQDWVLQSFEEPRRSAQDPTMLQFKSTPDLLRDQQEAAPPGSVDHMKATIYGILREGSSESETSVRRKVSLVLEKMQPLVMVSSGSTKAVAGQGELTRKVEELQRKLDEEVKKRQKLEPSQVGLERQLEEKTEECSRL
With B2, the binding result in assay [3] is reported as “binds”.

B3: CGN-M2 (R40/41A) (domain or fragment, UniProt Q9P2M7 1-406)
chain: MEQAPNMAEPRGPVDHGVQIRFITEPVSGAEMGTLRRGGAAPAKDARASTYGVAVRVQGIAGQPFVVLNSGEKGGDSFGVQIKGANDQGASGALSSDLELPENPYSQVKGFPAPSQSSTSDEEPGAYWNGKLLRSHSQASLAGPGPVDPSNRSNSMLELAPKVASPGSTIDTAPLSSVDSLINKFDSQLGGQARGRTGRRTRMLPPEQRKRSKSLDSRLPRDTFEERERQSTNHWTSSTKYDNHVGTSKQPAQSQNLSPLSGFSRSRQTQDWVLQSFEEPRRSAQDPTMLQFKSTPDLLRDQQEAAPPGSVDHMKATIYGILREGSSESETSVRRKVSLVLEKMQPLVMVSSGSTKAVAGQGELTRKVEELQRKLDEEVKKRQKLEPSQVGLERQLEEKTEECSRL
Take B3: the binding entry in assay [3] is on record as “binds”.

B4: GST-CGN(1015-1203) (domain or fragment, UniProt Q9P2M7 1015-1203)
chain: DLECDKISLERQNKDLKTRLASSEGFQKPSASLSQLESQNQLLQERLQAEEREKTVLQSTNRKLERKVKELSIQIEDERQHVNDQKDQLSLRVKALKRQVDEAEEEIERLDGLRKKAQREVEEQHEVNEQLQARIKSLEKDSWRKASRSAAESALKNEGLSSDEEFDSVYDPSSIASLLTESNLQTSSC
As for B4, in assay [3], the binding entry is given as “no binding (tested: 2 μg test protein in 200 μl)”.
